Measured values reported in patent US20230027739A1, “ANTIGEN-BINDING AND ANTIGEN D[…]” (Entrada Therapeutics, Inc., priority 2021, published 2023).
These are yes or no findings as the source states them, for the method shown. Some binding calls cover weakened binding; strength is not graded here.

The chains behind the UniProt entries cited, without tags or fusion partners. Where a name states a change or a piece, a line headed by the entry shows the natural chain unless it says otherwise.
UniProt P35222: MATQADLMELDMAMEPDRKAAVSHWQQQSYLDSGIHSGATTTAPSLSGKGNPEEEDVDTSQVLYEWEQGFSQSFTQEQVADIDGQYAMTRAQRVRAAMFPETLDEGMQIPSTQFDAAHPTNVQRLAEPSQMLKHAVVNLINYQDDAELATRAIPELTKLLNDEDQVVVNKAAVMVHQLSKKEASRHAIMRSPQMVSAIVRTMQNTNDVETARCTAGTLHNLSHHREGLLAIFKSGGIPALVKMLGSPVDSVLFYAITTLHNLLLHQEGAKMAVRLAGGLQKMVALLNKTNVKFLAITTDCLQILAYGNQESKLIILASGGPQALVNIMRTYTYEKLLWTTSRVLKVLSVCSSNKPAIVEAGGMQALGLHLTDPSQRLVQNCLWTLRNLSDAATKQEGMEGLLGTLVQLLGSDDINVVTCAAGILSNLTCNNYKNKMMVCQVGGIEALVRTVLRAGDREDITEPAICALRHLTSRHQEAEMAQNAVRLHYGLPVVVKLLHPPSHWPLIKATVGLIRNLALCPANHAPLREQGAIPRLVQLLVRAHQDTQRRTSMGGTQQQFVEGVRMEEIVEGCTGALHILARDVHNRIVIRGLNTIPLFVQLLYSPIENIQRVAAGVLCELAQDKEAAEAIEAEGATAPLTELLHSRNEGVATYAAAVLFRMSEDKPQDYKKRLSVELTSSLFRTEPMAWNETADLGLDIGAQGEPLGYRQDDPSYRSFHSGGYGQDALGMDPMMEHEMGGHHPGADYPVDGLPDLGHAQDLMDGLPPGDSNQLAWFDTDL

B1: BC3 (VHH)
VHH: EVQLVQPGGSLRLSCAVSGSISNFNAMGWYRQAPGKQRELVATITRGGSTDYAASVKGRFTISRDSAANTVYLQMNSLKPEDTAVYYCNAQRSPLILTTSRTHNYWGQGTQVTVSS
B2: BC6 (VHH)
VHH: QVQRQESGGGLVQPGGSLRLSCAASGDIFRVNDMAWYRQAPGKQRELVATITRGGGVAYADSVKGRFTISRDNSKNTVALQMNSLKPDDTAVYYCNADVQVGRNYEYNYWGQGTQVTVSS
B3: BC11 (VHH)
VHH: QVQLVETGGGLVQPGGSLRLSCVASGFKFDAYAMSWARQAPGKWLEWVSDISWNGVSEYYAESMKGRFTISRDNAKNTVYLQMSSLKPEDTAVYYCAKQARPQEVGVPTFQVTGYGMDYWGKGALVTASS
B4: BC12 (VHH)
VHH: EVQVQESGGGLVQPGGSLRLSCAASGSFYSIVAMGWYRQAPGQQRELVATVTSGGSGGSVTNYADSVKGRFTISRDNAKNTVDLQMNSLKPDDTAVYSCWARVRVTPERFFSYWDRGTQVTVAS
B5: BC13 (VHH)
VHH: QVQLVETGGGLVAPGGSLTLSCVASGSIFSIYSMGWYRQAPGKERELVADTTAGNTPHYGESVRGRFTISSISRDSAKNTVYLQMSDLKPDDTAVYYCAMGISHNWYAPSIYWGRGTQVTVSS
B6: BC14 (VHH)
VHH: GGALAQPGGSLTLSCAVSGFTFDYDAAELRDYVLGWIRQVPGKEPEGVSCSSRDGTAYYSDSVKGRFTIYRDNQKNTVYLQMNSLKPDDTAVYYCAAHDLIVYYNDFPLCSTYDYDYWGQGIQVTVSS

Each binder was assayed against β-catenin protein (purified antigen of Example 5) (Homo sapiens (Human)) (UniProt P35222) (assay: monoclonal phage ELISA on coated β-catenin (1 µg/ml), anti-M13-HRP, OD450; >0.5 counted as positive).
With B1 the binding was “binds”. With B2 the binding was “binds”. B3 was tested, and the binding was “binds”. With B4 the binding was “binds”. With B5 the binding was “binds”. In the case of B6, the binding is reported as “binds”.
